The values below come from PubChem BioAssay AID1347423 (Functional Genomics Laboratory (NCATS/FGL), 2020).

In all, about 52,000 sequences went through this assay and about 210 (0.4%) were called active.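 How the source made its calls: active means gene whose silencing raises cell survival under the drug, median off-target-corrected z-score across its silencing RNAs 2 or more; inactive means the rest.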 Some of the results follow.

The nature of this assay: Resistance to Poly (ADP-Ribose) Polymerase inhibitor: Gene Identification via Genome-wide siRNA Screen. The note with it: mouse BRCA2 R2336H ES cells, olaparib, CellTiter-Glo viability; stronger effect = higher value. The method, boiled down:
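Mouse BRCA2 R2336H ES cells were reverse-transfected with siRNA (20 nM final), treated at 48 h with 500 nM olaparib, and read by CellTiter-Glo after 72 h. Scores: MAD-based z per siRNA, median per gene, seed off-target correction.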
Background: Cellular ATP, detected with luciferase, serves as a proxy for viable cell number.
Turning to GCACUUUAAUCUGGCUACCTT against Dnmt3b, the z-score was inactive: -1.11.

Consider GGUGGAAGGACUUACAAUCTT against Ptgds2, for which the z-score is inactive: 0.347.

“GGAUAUCCACAGAAAUCAATT against 1200002N14Rik”: the z-score is inactive: 1.71.

Regarding GCUGAUUAACCCUCAGUAUTT against Gpc6, the z-score is inactive: -1.23.

Take GGUAGUGUCUGUAUUCUACTT against Olfr508: the z-score is inactive: 0.0277.

With “GCCAGUUCUAGAAAUACCATT against 8430429K09Rik”, the z-score is inactive: -0.101.

In the case of CCCAAAACGGUAGCUUAAGTT against Chc1, the z-score was inactive: 0.0857.

Consider GGAAAGGUGUAUUCUUAAUTT against Bhlhb5, for which the z-score is inactive: -0.617.

On to “CCACUUUCGCUUUACCAAUTT against C330011M18Rik”, for which the z-score is inactive: 0.267.

As for GGAGGUCCAGCUGUUCAUGTT against Kcnn4, the z-score is inactive: 2.89.

Regarding GGAGGUUAUGUUUAAAACUTT against Dnchc1, the z-score is inactive: -1.11.

Take “GGUAUGUUGGAAAGUCUUUTT against 5730577I03Rik”: the z-score is inactive: -1.7.

Turning to GUAGAGUGAUGAGAGGCCUTT against V1rc4, the z-score is inactive: 0.244.

For the sequence “GCCUCCACAUAAGAAGCUGTT against 1600019O04Rik”, the z-score was inactive: 0.757.

For CCUAGCUAUGCUUUUGGCATT against Fkbp4, the z-score is inactive: 1.41.

In the case of GCCCGUAUAGGUAUUGGUCTT against Mpg, the z-score was inactive: -1.36.

Take GGUAAUUAUCUUGUUGUCATT against Sacm1l: the z-score is inactive: 0.438.

Regarding GGGACAAAUUGUCCAAAUGTT against Trpc4ap, the z-score was inactive: 0.907.

Regarding GCAAAUCACCUACAAAAACTT against Zfp326, the z-score was inactive: 0.526.

For GGAAAUGAGAGCAUCCAUUTT against Cndp2, the z-score is inactive: 0.189.

Take GCUUUUUCUCUUUGCACUGTT against Olfr826: the z-score is inactive: -0.363.

Turning to GUCUAUCUUCAGCACAAACTT against Klrc3, the z-score is inactive: 0.128.

For the sequence GGCAUAUAUACAUGCCUGCTT against V1ri2, the z-score is inactive: 0.309.

For the sequence GGAAACUUAUCCCUACUCATT against Tal2, the z-score is inactive: 0.322.

On to “GGAUAUUAUGUCUUUGCUATT against 2810417D08Rik”, for which the z-score is inactive: -1.53.

As for CGGAUAUUUACGAACUUACTT against Pitpnb, the z-score is inactive: 0.466.

In the case of GGGCUUGGAGAGAAAACCATT against Rnut1, the z-score was inactive: 1.74.

As to GGGAGCCAUUUUUACAGACTT against Gpr120, the z-score is inactive: -0.477.

As to GGCCAUCCGCAUUUUUUCCTT against Rkhd3, the z-score is inactive: 0.51.

Take GUGCUCUAUGUCUUCACUGTT against Ltb4r2: the z-score was inactive: -0.287.

As to GCACGGAAUUGUUGAGCUGTT against Maff, the z-score is inactive: -0.469.

In the case of ACGACCUAUACCUCAGACCTT against Cebpd, the z-score was inactive: -0.35.

On to GCACAUGCCAUACAACCAUTT against Fads1, for which the z-score was inactive: 0.615.

Regarding “GGAACAGAAAUUCUAUGAGTT against D830007E07Rik”, the z-score is inactive: 0.946.

For the sequence “GCUGGAAAGUAGUUCAGUGTT against 4930583K01Rik”, the z-score is inactive: 0.992.

On to CCACAUCAAGCAGAAAGUCTT against MGC118309, for which the z-score was inactive: 0.258.

For GGGAUAAAUAUGAAGAAAGTT against Tacc2, the z-score is inactive: 0.0585.

With GCAGUGUUUAGAGAGUUAUTT against Ngep, the z-score was inactive: 0.423.

For GGCCAUUAACCAGUCUAUCTT against Mucdhl, the z-score is inactive: -1.75.

GGAAACUUAAAGUGAAGGATT against Rbm28: the z-score was inactive: -0.0958.

For CCAUUGAGGCUACGAAAGCTT against Nefl, the z-score was inactive: 0.543.

With GGAUUGUCAGAGAAAGAGATT against Syt3, the z-score was inactive: -0.0374.

Turning to GGAAUCAUCAGGUUCAUCATT against Fpr1, the z-score is inactive: 3.22.

With “GGAUCUCGAAAGAACUGAUTT against 4833427G06Rik”, the z-score is inactive: -1.98.

In the case of “GGAGAUACUGAAAGAGGCCTT against 1110035L05Rik”, the z-score is inactive: -1.03.

For the sequence UGUAUCUUUCUGUAGUUCUTT against Taar7e, the z-score was inactive: 0.173.

With GGGAAUUUGCUCCUGAAAGTT against Pcdhb6, the z-score was inactive: -0.55.

Regarding GGAAAGCACAGACAACAUATT against Rfxap, the z-score is inactive: 0.346.

For GGACAAGCAGUGGCUAUUUTT against Arhgef19, the z-score was inactive: -3.37.

As for GGAUCAUCUCAAGUCUUACTT against F7, the z-score was inactive: -1.91.

As to GGUCAUCACGAUUGUUUUGTT against Cyp1a1, the z-score is inactive: 0.828.

In the case of GGUUGUAAACCACGUGGACTT against Adam8, the z-score was inactive: 1.1.

On to GUGGACUCCAAGCUACAAATT against Olfr1047, for which the z-score is inactive: 0.701.

In the case of GGACCAGCUAAAUAUUAGUTT against Rgs2, the z-score is inactive: 1.07.

For the sequence GGCAGUGGAGUUAACAACATT against Dsg1b, the z-score was inactive: 0.68.

With GAUAUCUUUAGCAAUGACATT against Olfr159, the z-score is inactive: -0.194.

Regarding GCUGUAUCGGGUUAAUGACTT against Cpne7, the z-score was inactive: 1.11.

For CCUUUCUAGGUGACUACUUTT against Pemt, the z-score was inactive: -1.4.

For the sequence GGCCCAAUGUCACUCACUATT against Sirt3, the z-score was inactive: -2.19.

Regarding UUUCAAUCUGUAGCUUUCCTT against Krt2-10, the z-score is inactive: -0.436.

As for GCUGUCUCUACGUUGGAGATT against Adamts2, the z-score was inactive: 0.746.

For GGAACAACGGAAAAGCGAGTT against Ankrd1, the z-score was inactive: -0.333.

Regarding CCGAUGUCGCUGUAAUUGGTT against BC021611, the z-score is inactive: -0.292.

Take CCUGCGUCUCCAGUAGUUUTT against Reps1: the z-score is inactive: 0.136.

In the case of GGGACCUGAUUGUUGUUUATT against Bcap31, the z-score was inactive: 0.78.

For GGCAACGAGAGUCCAUUUCTT against MGC74379, the z-score is inactive: 0.241.

Turning to GGUACCAGAGGAUUCUGAUTT against Pcdhga8, the z-score was inactive: 0.265.

Take GGGACUUCAUCCUCAUUUCTT against Smcr8: the z-score is inactive: -2.45.

As to GGCAUGUGUGCCUAAAACCTT against Sprr4, the z-score is inactive: 0.27.

With GGUAGAGCAGAAUUGAAAATT against Bmx, the z-score was inactive: 0.733.

Regarding GGGACAGUGGACCAUUAUGTT against Rnf8, the z-score is inactive: -1.55.

As to GGUCUACAUGUUCAAGUGUTT against Laptm5, the z-score was inactive: 0.0886.

As for GCAGCUUCAAGAGAGCCAUTT against Rhbdl, the z-score is inactive: -0.961.

Consider “GGUUGGACAGUAAGAUUCATT against A630090P18”, for which the z-score was inactive: 0.828.

With GGACAUUUUUGACAUCAUATT against Tubg1, the z-score was inactive: -1.1.

For GGUUGGUGGUGCAGAUAGATT against Krt1-1, the z-score was inactive: 0.667.

As for GGCUGAGAUCAAGAGGAUCTT against Ap2a1, the z-score was inactive: 1.43.

Take GGCAAAGAAGGAUUCCUGCTT against Bapx1: the z-score is inactive: 0.791.

In the case of GGAGAAGUCUGGCAUCAUATT against Mapkapk5, the z-score is inactive: -0.909.

Consider GAACUUUGCCAUUGAUUUGTT against Ndufs6, for which the z-score is inactive: 1.03.

Turning to GGCUGAACCUCAAGGUCAUTT against Chst1, the z-score was inactive: 0.512.

Turning to GGUGUGCCUUUUCAAGAAATT against Hebp2, the z-score is inactive: -0.958.

GCUAGUCACCAUUCUGAUUTT against Olfr141: the z-score is inactive: -0.177.

“CCAGAGGUUAUUCAUUCAATT against 2810421I24Rik”: the z-score was inactive: 0.506.

As for GGGAUCAGAAAAGUUAACATT against Acaca, the z-score is inactive: 0.643.

For the sequence AAAGUUCGCCGUCUCUGGGTT against Olfr426, the z-score was inactive: 1.87.

Regarding GGUUCAAGGAUGAAUUAGATT against Trappc6b, the z-score was inactive: 0.161.

With CCCAUGAUCUGGAAGAGACTT against Il1a, the z-score is inactive: 2.68.

Consider GCCUGAUGUUGUUUCCAAATT against Lias, for which the z-score is inactive: -1.14.

Consider GGGCUUUCCUCAAGGUAGUTT against Olfr62, for which the z-score is inactive: 0.408.

For GGCUUACUUGAAGCAUUUATT against Plcb4, the z-score is inactive: -1.2.

In the case of CGCACCUGUAACUUAUCAGTT against Rac1, the z-score was inactive: 0.957.

On to CGAGUUAAGUAACAGGACATT against BC025076, for which the z-score is inactive: -0.237.

Consider “GGCCAAAUUUGGGUUUGGATT against 9330164H19Rik”, for which the z-score is inactive: -1.46.

For CCGUGAUCUUAAACCCUCUTT against Mapk7, the z-score was inactive: -1.22.

Regarding “GGGAUCCGAAUUCUGACCATT against 2010305C02Rik”, the z-score is inactive: 1.23.

As for “GGAGGUUCCUUCUUCAUCUTT against 2310002J15Rik”, the z-score is inactive: 0.13.

As to GGUCGCCUACAAAAAAAAATT against Fthfd, the z-score is inactive: 0.435.

In the case of GGUUGACUCUACAAAAUACTT against Muc5b, the z-score was inactive: -0.795.

For the sequence GCGAUGUGAGCAAAUGCCUTT against Twsg1, the z-score is inactive: 0.744.

Take “GGAAUUAGUCUAGAAAACGTT against D3Ertd250e”: the z-score is inactive: -0.744.

Regarding “GCAAUCGUCAAAAAGAAUCTT against 3110057O12Rik”, the z-score is inactive: 1.57.

With GGAAAAGGUGACCUGUCUCTT against AW547365, the z-score is inactive: -2.42.

As to GGAAGAAGAUAAAGAGCGGTT against Nrgn, the z-score is inactive: 0.287.

Turning to “CCAUGUGCGAUGUCACCAUTT against 7030401O21Rik”, the z-score was inactive: -0.456.
